Test results taken from doi:10.1101/2021.04.12.439405 (bioRxiv, 2021).
Positions count from the first letter of the chain named. Results are given in words; binding and its absence hold for the method and conditions named. Some entries that bind do so weakly or less than the wild type. For some assays here: Where a sequence is shown, tags or fusion partners need not be part of it.

What was measured:
[1] = target: T1, MukB^KK (K1114E and K1125E) (E. coli) (UniProt P22523); experiment: co-purification
T1 sequence: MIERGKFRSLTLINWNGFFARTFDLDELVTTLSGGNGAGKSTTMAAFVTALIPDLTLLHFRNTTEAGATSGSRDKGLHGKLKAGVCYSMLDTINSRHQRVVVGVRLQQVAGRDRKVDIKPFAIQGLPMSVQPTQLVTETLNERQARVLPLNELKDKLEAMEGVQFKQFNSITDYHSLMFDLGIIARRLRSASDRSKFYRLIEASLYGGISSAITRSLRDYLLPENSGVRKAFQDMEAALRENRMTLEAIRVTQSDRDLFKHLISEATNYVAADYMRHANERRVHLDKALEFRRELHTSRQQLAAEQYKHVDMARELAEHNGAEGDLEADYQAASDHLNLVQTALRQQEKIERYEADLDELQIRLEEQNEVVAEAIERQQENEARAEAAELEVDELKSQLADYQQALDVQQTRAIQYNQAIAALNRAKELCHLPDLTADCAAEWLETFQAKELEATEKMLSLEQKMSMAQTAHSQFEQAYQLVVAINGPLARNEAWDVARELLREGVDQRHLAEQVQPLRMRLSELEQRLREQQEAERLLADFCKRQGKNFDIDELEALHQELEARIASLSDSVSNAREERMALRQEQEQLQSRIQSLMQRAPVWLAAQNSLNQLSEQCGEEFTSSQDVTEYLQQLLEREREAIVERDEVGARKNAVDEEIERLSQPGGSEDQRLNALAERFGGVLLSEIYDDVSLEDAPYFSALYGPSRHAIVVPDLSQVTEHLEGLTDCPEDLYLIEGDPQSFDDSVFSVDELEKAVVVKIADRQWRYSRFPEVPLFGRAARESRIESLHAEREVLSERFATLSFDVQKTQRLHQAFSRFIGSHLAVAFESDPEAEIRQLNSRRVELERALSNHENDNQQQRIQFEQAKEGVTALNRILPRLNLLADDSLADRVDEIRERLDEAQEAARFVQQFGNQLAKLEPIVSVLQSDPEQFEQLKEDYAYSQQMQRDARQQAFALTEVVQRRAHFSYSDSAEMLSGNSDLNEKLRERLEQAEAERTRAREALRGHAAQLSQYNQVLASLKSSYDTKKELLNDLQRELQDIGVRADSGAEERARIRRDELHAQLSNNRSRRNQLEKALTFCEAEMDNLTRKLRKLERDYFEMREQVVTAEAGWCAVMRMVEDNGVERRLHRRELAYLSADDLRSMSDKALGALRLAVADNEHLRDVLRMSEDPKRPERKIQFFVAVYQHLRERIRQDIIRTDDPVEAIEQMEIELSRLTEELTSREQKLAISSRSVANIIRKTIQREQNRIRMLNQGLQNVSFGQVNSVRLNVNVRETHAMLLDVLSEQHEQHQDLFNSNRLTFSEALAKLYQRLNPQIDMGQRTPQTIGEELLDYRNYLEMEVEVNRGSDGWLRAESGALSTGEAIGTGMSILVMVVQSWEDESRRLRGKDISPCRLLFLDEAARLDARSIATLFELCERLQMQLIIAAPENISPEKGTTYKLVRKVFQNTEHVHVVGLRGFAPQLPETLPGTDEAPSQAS

[2] = target: T2, MukB-His (wild type MukB) (E. coli, UniProt P22523 1-1486); experiment: co-purification
T2 sequence (looked up): T1 sequence with E1114K, E1125K

For “Acyl Carrier Protein (AcpP), co-purified with MukB proteins (from UniProt P0A6A8 1-78)”, the binding [1] was “no binding” and the binding [2] was “binds”.
